{
  "source": "patent US7560591B2",
  "about": "“Benzamidine derivatives having anti-inflammatory and immunosuppressive activity” (Rotta Research Laboratorium S.p.A., priority 2001, dated 2009)",
  "system": "extravasation in the ears of mice",
  "test": "Extravasation (Evans Blu) induced by phlogogenic agents in the ears of mice",
  "assay_type": "in vivo",
  "details": "models in which PAF and Zymosan were used",
  "method": "b) Some of the compounds of the invention, such as compounds I-4, I-11 and I-31, were evaluated in vivo in a series of experimental extravasation models in which 5 μl of the preselected phlogogenic agent dissolved in physiological solution was injected intradermally into the ears of mice as described by Erdo et al., with slight modifications [Agents and Actions 39, 137-142 (1993)].\nThe products under test were administered orally 1 hour before the challenge and, 30 minutes before the challenge, the dye Evans Blu was injected intravenously in a dose of 100 mg/kg. The animals were killed at a time predetermined according to the test, 30 min.—2 hours after the challenge. The extravasation was evaluated by determining the quantity of dye present in the ear, extracted after homogenisation of the tissue in 2 ml of formamide and incubation at 50° C. for 2 hours. After centrifuging, the amount of dye was determined by measuring the absorption at 620 nm. The maximum % effect (% MPE) was calculated by the following formula:\n[formula] in which EV is the mean absorption observed in the group of animals treated solely with the phlogogenic agent, ED is the group treated with the phlogogenic agent and the drug, and EB is the base value, that is, the value for the animals injected with physiological solution alone.\nThe phlogogenic agents used were: […]",
  "note": "Some entries share one result that the patent states for a list of compounds.",
  "data": [
    {"smiles": "CN1C(C(=O)Nc2ccccn2)=C(O)c2ccccc2S1(=O)=O", "note": "[Piroxicam, reference compound]", "values": [
      {"measurement": "times less active than Compound I-4", "value": "2-3 times"}
    ]}
  ]
}
